# Publication PMC7819943, “Rice protein-binding microarrays: a tool to detect cis-acting elements near promoter regions in rice”
# This is one part of the list.
# Target: T1, OsSMF1 (Oryza sativa, UniProt Q6ZLB0 1-436)
# T1 sequence: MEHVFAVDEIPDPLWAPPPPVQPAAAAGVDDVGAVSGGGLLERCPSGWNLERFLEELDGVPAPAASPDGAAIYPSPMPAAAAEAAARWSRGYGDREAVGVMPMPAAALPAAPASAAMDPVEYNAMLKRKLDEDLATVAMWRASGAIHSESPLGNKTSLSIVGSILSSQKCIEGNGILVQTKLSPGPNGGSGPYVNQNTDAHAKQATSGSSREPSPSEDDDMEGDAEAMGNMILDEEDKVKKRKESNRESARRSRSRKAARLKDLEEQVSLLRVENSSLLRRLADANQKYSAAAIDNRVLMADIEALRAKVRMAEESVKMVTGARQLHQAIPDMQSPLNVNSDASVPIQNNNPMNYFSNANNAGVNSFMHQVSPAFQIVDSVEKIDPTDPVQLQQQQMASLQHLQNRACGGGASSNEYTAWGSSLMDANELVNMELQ
# Assay: protein-binding microarray (RPBM); PBS, 2% BSA, 51.3 ng/ul salmon testes DNA, 50 uM zinc acetate, 200 nM TF, 25 C, 1 h; high values mean tight binding
# Settings: protein: recombinant; tags: N-terminal polyhistidine and DsRed monomer fusion (pET32a); chain copies: 2; label: CyDye5-dUTP incorporated in the synthesized complementary strand; 3' TTTTT single-stranded linker to array surface; dsDNA, one strand shown
# Method in brief: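 Transcription factors were each fused at the N-terminus to a polyhistidine tag plus DsRed and expressed in E. coli BL21-CodonPlus before Ni–NTA purification. Binding to a double-stranded custom Agilent array was carried out with 200 nM protein at 25 °C for 1 h in PBS, 2% BSA, salmon testes DNA and 50 µM zinc acetate. The binding signal is per-feature fluorescence intensity, in arbitrary units, on an Axon 4000B scanner.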
row,Sequence,binding signal
1,CTACGCTGCAGCTTGGTGACACTAGTGATTAACTATCTTGCGGAGTCACCTAGTGCAG,3460 fluorescence intensity (a.u.)
2,CGAGTACTAGTGCGTAGTACTAGCCGTGTACCACCCACCTCGGAGTCACCTAGTGCAG,3330 fluorescence intensity (a.u.)
3,CATATACTGGTTCAAATTCGTAGTATTTGGTTGTCTAATCCGGAGTCACCTAGTGCAG,3710 fluorescence intensity (a.u.)
4,ATCATCCCCGTATTCCCGTGTGCCAGTCGACCAAACGCGTCGGAGTCACCTAGTGCAG,3680 fluorescence intensity (a.u.)
5,GGTTATTTGGATGGGCTTTCCAACAAATTGGCCCACTATGCGGAGTCACCTAGTGCAG,3470 fluorescence intensity (a.u.)
6,CGGACGCTAAGTCAATTTGGCACGTCGATGCCACGTCAGTCGGAGTCACCTAGTGCAG,15900 fluorescence intensity (a.u.)
7,AACCAACGGCCCAGATCACGCCGCTGACGTGTACTCCCTCCGGAGTCACCTAGTGCAG,21100 fluorescence intensity (a.u.)
8,TTAAAACCGATTCAAACACGGATGACGTATCAAAGTACCGCGGAGTCACCTAGTGCAG,9180 fluorescence intensity (a.u.)
9,TCGTCCCGGCGCTCTTCCCGCTCGCGCACGCCGACGCCGCCGGAGTCACCTAGTGCAG,29200 fluorescence intensity (a.u.)
10,TCGAACAGAACATCTCCTACATGACACGAGAGGTATTACGCGGAGTCACCTAGTGCAG,3510 fluorescence intensity (a.u.)
11,TCCTCTTAATCCAATGCACGCGTACCAACCACGCGTGGAACGGAGTCACCTAGTGCAG,3720 fluorescence intensity (a.u.)
12,TCCTAAAATGTACTAGCAACATAGTATTTAATTAGATATCCGGAGTCACCTAGTGCAG,3160 fluorescence intensity (a.u.)
13,GCTGGTTTGATTAGATCTTCATCCCACGTGGCATTGACGTCGGAGTCACCTAGTGCAG,25100 fluorescence intensity (a.u.)
14,TGGTGATATCAATAGGATTGGAAGAGATTTGTCAGCCTATCGGAGTCACCTAGTGCAG,3450 fluorescence intensity (a.u.)
15,CGCGCGCGGACGTAGGGATCGCCGACGCGCGCGGGTGGCACGGAGTCACCTAGTGCAG,4050 fluorescence intensity (a.u.)
16,ACCACACAAAGACACACGTACTTGTATACACAGCTCTCGCCGGAGTCACCTAGTGCAG,3300 fluorescence intensity (a.u.)
17,TGTTAGAGGTGATGGTTTGGATGCGTCACAGGTGACTTTGCGGAGTCACCTAGTGCAG,7330 fluorescence intensity (a.u.)
18,ATTCGCTTCGATCCAGCGTGTCACGCGGAATCCGCCCGTTCGGAGTCACCTAGTGCAG,6610 fluorescence intensity (a.u.)
19,ACAGCCTCGCGGGCCCCAGGATGCCAGGACACACGAAATCCGGAGTCACCTAGTGCAG,3160 fluorescence intensity (a.u.)
20,TCTGCCCGAATGACATGGCGGATAGATTTTACAATGGATGCGGAGTCACCTAGTGCAG,5460 fluorescence intensity (a.u.)
21,TGACATGCAACAATGAGGGATGTTTCTTTAAGGGATGAAACGGAGTCACCTAGTGCAG,3330 fluorescence intensity (a.u.)
22,CCTAACCAGTCACAGGTGACTAGTTACCTGTGACGGGTCGCGGAGTCACCTAGTGCAG,5480 fluorescence intensity (a.u.)
23,AGACGCAGCAATCGTGACAAACACAGGATAAATCCTCACTCGGAGTCACCTAGTGCAG,3440 fluorescence intensity (a.u.)
24,GCCCGGCTGGACACCGTGGCCGCGCTGGCAGACGCTGATCCGGAGTCACCTAGTGCAG,3650 fluorescence intensity (a.u.)
25,GAATTTGTTTATGCCACGTGAGCTGCCTCACACGTGTCACCGGAGTCACCTAGTGCAG,7810 fluorescence intensity (a.u.)
26,CGGCCATGCCGCCTTGCGTGTGGGGATCGCACACACCTCTCGGAGTCACCTAGTGCAG,3240 fluorescence intensity (a.u.)
27,ACTGCACTTATTTTGGGACGGAGTTAGTAGATTACTAGATCGGAGTCACCTAGTGCAG,3710 fluorescence intensity (a.u.)

# 14 entries from above, reformatted:
row	Sequence	binding signal
13	GCTGGTTTGATTAGATCTTCATCCCACGTGGCATTGACGTCGGAGTCACCTAGTGCAG	25100 fluorescence intensity (a.u.)
14	TGGTGATATCAATAGGATTGGAAGAGATTTGTCAGCCTATCGGAGTCACCTAGTGCAG	3450 fluorescence intensity (a.u.)
15	CGCGCGCGGACGTAGGGATCGCCGACGCGCGCGGGTGGCACGGAGTCACCTAGTGCAG	4050 fluorescence intensity (a.u.)
16	ACCACACAAAGACACACGTACTTGTATACACAGCTCTCGCCGGAGTCACCTAGTGCAG	3300 fluorescence intensity (a.u.)
17	TGTTAGAGGTGATGGTTTGGATGCGTCACAGGTGACTTTGCGGAGTCACCTAGTGCAG	7330 fluorescence intensity (a.u.)
18	ATTCGCTTCGATCCAGCGTGTCACGCGGAATCCGCCCGTTCGGAGTCACCTAGTGCAG	6610 fluorescence intensity (a.u.)
19	ACAGCCTCGCGGGCCCCAGGATGCCAGGACACACGAAATCCGGAGTCACCTAGTGCAG	3160 fluorescence intensity (a.u.)
20	TCTGCCCGAATGACATGGCGGATAGATTTTACAATGGATGCGGAGTCACCTAGTGCAG	5460 fluorescence intensity (a.u.)
21	TGACATGCAACAATGAGGGATGTTTCTTTAAGGGATGAAACGGAGTCACCTAGTGCAG	3330 fluorescence intensity (a.u.)
22	CCTAACCAGTCACAGGTGACTAGTTACCTGTGACGGGTCGCGGAGTCACCTAGTGCAG	5480 fluorescence intensity (a.u.)
23	AGACGCAGCAATCGTGACAAACACAGGATAAATCCTCACTCGGAGTCACCTAGTGCAG	3440 fluorescence intensity (a.u.)
24	GCCCGGCTGGACACCGTGGCCGCGCTGGCAGACGCTGATCCGGAGTCACCTAGTGCAG	3650 fluorescence intensity (a.u.)
25	GAATTTGTTTATGCCACGTGAGCTGCCTCACACGTGTCACCGGAGTCACCTAGTGCAG	7810 fluorescence intensity (a.u.)
26	CGGCCATGCCGCCTTGCGTGTGGGGATCGCACACACCTCTCGGAGTCACCTAGTGCAG	3240 fluorescence intensity (a.u.)

# Additional results follow:

row,Sequence,binding signal
1,TATTTGTATTATGTTGCAAATGTTGCAATATATATATTTACGGAGTCACCTAGTGCAG,15300 fluorescence intensity (a.u.)
2,CTGAACAGCCAGCAAAGCGTCGTTCAGCTGCGTAACATCTCGGAGTCACCTAGTGCAG,23000 fluorescence intensity (a.u.)
3,TCAGCCTCAGCACCAGGGCTGACGCAGCGAGCAAGGCAAACGGAGTCACCTAGTGCAG,34900 fluorescence intensity (a.u.)
4,CCTCTCGATTCGCTGCCTCGTTGGCACCGGAAGGCGCTCTCGGAGTCACCTAGTGCAG,5120 fluorescence intensity (a.u.)
5,TATATATGTTTTACCTTCTAATAACCTGTTTTATAGCTAGCGGAGTCACCTAGTGCAG,8980 fluorescence intensity (a.u.)
6,GTGACGAAGAAAGAGGCTCCTGATTACTTTGACATAATTGCGGAGTCACCTAGTGCAG,3220 fluorescence intensity (a.u.)
7,GTCGTCTCCATCGACCTCCTACGTCATGTCCCGGCGCAGGCGGAGTCACCTAGTGCAG,25200 fluorescence intensity (a.u.)
8,TGTACTGAGAGCGTGCAGCGGCGTACGTGGTTAGCGCTTTCGGAGTCACCTAGTGCAG,3530 fluorescence intensity (a.u.)
9,AAGAAGAGGGGAAAGAGATGGTGACGTGGTCACCCTGATGCGGAGTCACCTAGTGCAG,16000 fluorescence intensity (a.u.)
10,CCCCAATTTCTATCTTCTCTCCAAAAGTGACATGGTATCACGGAGTCACCTAGTGCAG,17800 fluorescence intensity (a.u.)
11,ACCGTCCATTTCCACATCGGACGGCACCCATCTCATCTGTCGGAGTCACCTAGTGCAG,3870 fluorescence intensity (a.u.)
12,ATTGTCAAATCATATAGCAATTAGGCTTAAAAGATTCGTACGGAGTCACCTAGTGCAG,18400 fluorescence intensity (a.u.)
13,CATCCCTCACTCGCAACCCTCTCCCACCTCTGACCGTCACCGGAGTCACCTAGTGCAG,3390 fluorescence intensity (a.u.)
14,TTACCATGCTATGTCATTTTGGCCCCTTCAAAATGCATAGCGGAGTCACCTAGTGCAG,3400 fluorescence intensity (a.u.)
15,TCCTCTCCTCATCATCACTCGCTCGCTCGCTCTCGCGCTTCGGAGTCACCTAGTGCAG,3270 fluorescence intensity (a.u.)
16,AGTGGAAGCAGGTCTTTTACTGATCGATCAAGGTCTGATGCGGAGTCACCTAGTGCAG,16800 fluorescence intensity (a.u.)
17,TATTTATAACAAAATATGACGTCTTACAATATATGCATTTCGGAGTCACCTAGTGCAG,3830 fluorescence intensity (a.u.)
18,CTGAAATGACCAGAATGCCCCTCCGTCCTACCCCACAATCCGGAGTCACCTAGTGCAG,19900 fluorescence intensity (a.u.)
19,TTGACGGTATACACCAATGCATGACGCACAAGGTTTGGCCCGGAGTCACCTAGTGCAG,7940 fluorescence intensity (a.u.)
20,CGCCCGCCCAACCACCGCCGGCTCAGTCGCTCTAACACCTCGGAGTCACCTAGTGCAG,4480 fluorescence intensity (a.u.)
21,CAGATACATTTGTTTATGACGTTCCCATCGTGGAGCATGTCGGAGTCACCTAGTGCAG,3220 fluorescence intensity (a.u.)
22,TACTCTTTTGCTGCATCATCGATCGATCGCTCATCCATCGCGGAGTCACCTAGTGCAG,4110 fluorescence intensity (a.u.)
23,CCCTAGGGTGATGACTGACGCGACTCTAAAGTTTATCGAACGGAGTCACCTAGTGCAG,5600 fluorescence intensity (a.u.)
24,AGCTTGTCGTCGTCACCGGCCTCGCCGCTGCTTGGTCCATCGGAGTCACCTAGTGCAG,5340 fluorescence intensity (a.u.)
25,TCACTGGGAGTTAAAATTTAACTCATGGTGACGTGGACGACGGAGTCACCTAGTGCAG,24500 fluorescence intensity (a.u.)
26,TCTCCCCTCTACAGTATGTCTCCATATATTCACATGTACGCGGAGTCACCTAGTGCAG,3450 fluorescence intensity (a.u.)
27,CCATTTGCAGCCCATCTTGACGTATGCAGCAGTTTCATGGCGGAGTCACCTAGTGCAG,5650 fluorescence intensity (a.u.)
